Reference: PubChem BioAssay AID493014 (National Center for Advancing Translational Sciences (NCATS), 2011)
The list shows a part of the results. The main result of the screen is listed elsewhere. These columns were measured beside it and carry no call. The list favours compounds with an active or inconclusive main result. Words in brackets tell the shape of the fitted curve; partial curves, single points and poor fits give uncertain potencies.

Test: qHTS Assay to Find Inhibitors of Chronic Active B-Cell Receptor Signaling
Settings: ABC-DLBCL IkBa-CBG/CBR reporter, luminescence ratio (green luciferase fused to IkBa over red control in TMD8 lymphoma cells), 4 h
Procedure, shortened: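 TMD8 ABC-DLBCL cells carrying doxycycline-inducible green luciferase fused to IkappaBalpha plus unfused red luciferase were exposed to compounds (up to 46 uM) for 4 hrs at 37C. Activity came from the overlap-corrected green/red luminescence ratio.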

[1] = measured here: CBR red luminescence, cell number
[2] = measured here: IkBa-CBG green luminescence

Question: What does the source list for `c1ccc2c(-c3csc(-c4ccncc4)n3)c[nH]c2c1`?
Answer: AC50 [1]: 15.8 µM [falling, single point]; AC50 [2]: 10 µM [falling, partial curve]

Question: With `O=C1NCC(O)=C1C=Nc1ccccc1O` as the molecule, how does the AC50 [1] read?
Answer: Its AC50 is 35.5 µM [falling, single point].

Question: Which AC50 [1] does the source give for `C=CCN1C(=O)C2(OCCO2)c2cc(C)ccc21` here?
Answer: The AC50 was 0.1 µM [rising, full curve, poor fit].

Question: For `CS(=O)(=O)Nc1ccc(C(=O)Nc2ccc3c(c2)OCO3)cc1`, which AC50 [1] is on record?
Answer: The AC50 was 20 µM [falling, single point].

Question: For `CC(=O)Nc1ccc(C2=CC(=O)CC(C)(C)C2)cc1`, which AC50 [1] is on record?
Answer: The AC50 was 14.6 µM [rising, partial curve, poor fit].

Question: For `CSc1ccccc1NC(=O)CN(C)S(=O)(=O)c1ccc(F)cc1`, which AC50 [1] is on record?
Answer: The AC50 was 25.9 µM [rising, single point].

Question: With `COc1ccccc1Nc1ncccc1[N+](=O)[O-]` as the molecule, how does the AC50 [1] read?
Answer: The AC50 was 12.6 µM [falling, partial curve].

Question: For `COc1ccc(CNC(=O)c2ccc3c(c2)N(C)CCS3)cc1`, which AC50 [1] is on record?
Answer: Its AC50 is 15.8 µM [falling, partial curve, poor fit].

Question: For `O=C(Nc1ccc2nc3n(c(=O)c2c1)CCCCC3)c1ccccc1Cl`, which AC50 [1] is on record?
Answer: The AC50 was 17.8 µM [falling, partial curve, poor fit].

Question: Which AC50 [1] does the source give for `CCCN(CCC)CCNC(=O)C1CC(=O)N(c2ccc(OC)cc2)C1c1ccc(OC)cc1` (stereo not drawn) here?
Answer: Its AC50 is 6.31 µM [rising, single point].

Question: With `O=C(CCNS(=O)(=O)/C=C/c1ccccc1)NCCc1c[nH]c2ccccc12` as the molecule, how does the AC50 [1] read?
Answer: Its AC50 is 20 µM [falling, partial curve, poor fit].

Question: Which AC50 [1] does the source give for `NNc1nc2ccccc2c(=O)n1Cc1ccccc1` here?
Answer: Its AC50 is 11.2 µM [falling, partial curve].

Question: With `CCc1nc(SCc2nc3ccccc3[nH]2)c2oc3ccccc3c2n1` as the molecule, how does the AC50 [1] read?
Answer: The AC50 was 6.51 µM [falling, single point].

Question: Which AC50 [1] does the source give for `O=C1CCN(S(=O)(=O)c2ccccc2)CCN1CCOCc1ccc(C(F)(F)F)cc1` here?
Answer: Its AC50 is 35.5 µM [falling, single point].

Question: For `Cc1cc(SCC(=O)c2cccs2)nc2ccccc12`, which AC50 [1] is on record?
Answer: The AC50 was 23.1 µM [falling, single point].

Question: Which AC50 [1] does the source give for `O=C(/C=C/Nc1ccccc1Oc1ccccc1)c1ccco1` here?
Answer: Its AC50 is 15.8 µM [falling, partial curve, poor fit].

Question: For `Cc1ccccc1-n1c(C)cc(/C=N/NC(=O)c2ccncc2)c1C`, which AC50 [1] is on record?
Answer: Its AC50 is 35.5 µM [falling, single point].

Question: Which results are given for `O=C(N/N=C/C(Br)=C\c1ccccc1)c1n[nH]c2c1CCC2`?
Answer: AC50 [1]: 6.51 µM [rising, partial curve, poor fit]; AC50 [2]: 0.291 µM [falling, full curve]

Question: Which AC50 [1] does the source give for `CCOc1ccc(C(=O)NC(C)(C)CC)cc1` here?
Answer: Its AC50 is 22.4 µM [rising, single point].

Question: For `COc1cc(N)c(Cl)cc1C(=O)OCC(=O)NCc1cccs1`, which AC50 [1] is on record?
Answer: The AC50 was 25.9 µM [rising, single point].

Question: With `CC(C)CN(C(=O)COC(=O)C(C)N1C(=O)c2ccccc2C1=O)c1c(N)n(Cc2ccccc2)c(=O)[nH]c1=O` (stereo not drawn) as the molecule, how does the AC50 [1] read?
Answer: The AC50 was 1.64 µM [rising, partial curve, poor fit].

Question: For `COc1ccc(-c2c(C#Cc3ccc(N(C)C)cc3)c3ccccc3n2C)cc1`, which AC50 [1] is on record?
Answer: Its AC50 is 13 µM [rising, partial curve].

Question: With `CN(C)S(=O)(=O)n1cc(/C=C(\NC(=O)c2ccccc2Cl)C(=O)N2CCCC2)c2ccccc21` as the molecule, how does the AC50 [1] read?
Answer: The AC50 was 3.16 µM [falling, partial curve, poor fit].

Question: Which AC50 [1] does the source give for `CSc1ncccc1C(=O)Nc1nc2c(C)cccc2s1` here?
Answer: The AC50 was 8.2 µM [falling, partial curve, poor fit].

Question: Which AC50 [1] does the source give for `O=C(Cc1ccccc1)Nc1cccc([N+](=O)[O-])c1` here?
Answer: The AC50 was 6.31 µM [rising, full curve, poor fit].

Question: Which AC50 [1] does the source give for `CCOc1ccccc1/C=C/c1onc(C)c1S(=O)(=O)N1CCC(C(=O)N2CCCCC2)CC1` here?
Answer: Its AC50 is 1.41 µM [rising, full curve, poor fit].

Question: For `COC(=O)c1sc(NC(=O)c2ccncc2)nc1C`, which AC50 [1] is on record?
Answer: The AC50 was 11.2 µM [falling, partial curve].

Question: With `C/C(=N\NC(=O)C1(C)NC(C)(C)Cc2ccccc21)c1ccccc1` (stereo not drawn) as the molecule, how does the AC50 [1] read?
Answer: The AC50 was 35.5 µM [falling, partial curve, poor fit].

Question: Which AC50 [1] does the source give for `CCN1CCN(CCCCOc2ccccc2F)CC1` here?
Answer: Its AC50 is 14.6 µM [rising, single point].

Question: With `CCCCOc1ccc(-c2nc(=S)[nH][nH]2)cc1` as the molecule, how does the AC50 [1] read?
Answer: Its AC50 is 1.64 µM [falling, partial curve, poor fit].

Question: For `COC(=O)c1ccc(Oc2nc(SC)nc(N(C)C)n2)cc1`, which AC50 [1] is on record?
Answer: The AC50 was 3.55 µM [falling, partial curve, poor fit].

Question: For `O=S(=O)(Nc1nc2ccccc2nc1N1CCc2ccccc2C1)c1ccc(Br)cc1`, which AC50 [1] is on record?
Answer: The AC50 was 11.6 µM [falling, partial curve, poor fit].

Question: For `O=C(/C=C/NNC(=O)c1ccccc1)c1ccccc1`, which AC50 [1] is on record?
Answer: Its AC50 is 5.8 µM [falling, partial curve].

Question: For `O=[N+]([O-])c1ccc(NC(=S)NCc2ccncc2)cc1`, which AC50 [1] is on record?
Answer: The AC50 was 0.631 µM [rising, full curve, poor fit].

Question: For `O=C(COc1cccnc1[N+](=O)[O-])Nc1ncc(Cl)cc1Cl`, which AC50 [1] is on record?
Answer: The AC50 was 2.59 µM [rising, partial curve, poor fit].

Question: For `O=C1CC(c2ccco2)Cc2c1cnn2-c1nc2ccccc2s1` (stereo not drawn), which AC50 [1] is on record?
Answer: Its AC50 is 29.1 µM [rising, single point].

Question: Which AC50 [1] does the source give for `Oc1ccc(/C=C/c2nc(-c3ccccc3O)n(-c3ccccc3)n2)cc1` here?
Answer: Its AC50 is 11.2 µM [falling, partial curve, poor fit].

Question: For `Cc1ccc(C2=NN(CCC(=O)NCCc3cccc(C)c3)C(=O)CC2)cc1`, which AC50 [1] is on record?
Answer: The AC50 was 35.5 µM [falling, single point].

Question: For `CN(CC(=O)Nc1ccccc1Sc1ccccc1)Cc1nc2ccccc2c(=O)[nH]1`, which AC50 [1] is on record?
Answer: The AC50 was 1 µM [rising, full curve, poor fit].

Question: With `O=C(CSc1nnc(-c2c[nH]c3ccccc23)o1)c1ccc(-c2ccccc2)cc1` as the molecule, how does the AC50 [1] read?
Answer: The AC50 was 18.4 µM [rising, single point].

Question: For `Cc1nnc(SCC(=O)NCc2cccs2)n1-c1ccccc1`, which AC50 [1] is on record?
Answer: The AC50 was 0.517 µM [rising, full curve, poor fit].

Question: For `c1c2c(cc3sc(N4CCOCC4)nc13)OCCO2`, which AC50 [1] is on record?
Answer: Its AC50 is 7.31 µM [falling, partial curve, poor fit].

Question: Which AC50 [1] does the source give for `COc1ccc(-c2csc(NC(=O)Nc3ccccc3)n2)cc1` here?
Answer: The AC50 was 0.1 µM [rising, full curve, poor fit].

Question: Which AC50 [1] does the source give for `CCOc1ccc(Br)cc1S(=O)(=O)Nc1ccc(C(=O)OC(C)C(=O)N(C)c2ccccc2)cc1` (stereo not drawn) here?
Answer: The AC50 was 9.2 µM [falling, partial curve].

Question: Which AC50 [1] does the source give for `CCOC(=O)C1=C(C)NC(C)=C(C(=O)OCC)C1` here?
Answer: Its AC50 is 6.31 µM [falling, single point].

Question: For `NC(=O)C1CCN(C2=C(NS(=O)(=O)c3ccccc3)C(=O)c3ccccc3C2=O)CC1`, which AC50 [1] is on record?
Answer: Its AC50 is 14.1 µM [rising, single point].

Question: Which AC50 [1] does the source give for `CCOC(=O)/C(C#N)=C1/C=Nc2ccccc2N1` here?
Answer: The AC50 was 7.31 µM [falling, partial curve, poor fit].

Question: For `NNc1nc2c(-c3ccc(Cl)cc3)nnn2c2ccccc12`, which AC50 [1] is on record?
Answer: The AC50 was 1.41 µM [falling, full curve].

Question: With `COc1ccc(C(=O)OCC(=O)Nc2sccc2C(N)=O)cc1OC` as the molecule, how does the AC50 [1] read?
Answer: Its AC50 is 4.47 µM [falling, full curve, poor fit].

Question: For `O=C(Cn1ncc(Cl)c(Cl)c1=O)c1ccc(Cl)cc1`, which AC50 [1] is on record?
Answer: The AC50 was 6.51 µM [falling, partial curve].

Question: What about the AC50 [2] of the same molecule?
Answer: Its AC50 is 23.1 µM [rising, partial curve, poor fit].

Question: With `CC(=O)Oc1ccc2c(=O)c(N3C(=O)c4ccccc4C3=O)c(C)oc2c1` as the molecule, how does the AC50 [1] read?
Answer: The AC50 was 23.1 µM [rising, single point].

Question: Which AC50 [1] does the source give for `COc1ccc(-c2c3c(=O)n(C)c(=O)n(C)c3cn2N2CCOCC2)cc1` here?
Answer: The AC50 was 6.51 µM [rising, partial curve, poor fit].

Question: What about the AC50 [2] of the same molecule?
Answer: Its AC50 is 16.4 µM [falling, partial curve, poor fit].

Question: Which AC50 [1] does the source give for `O=c1cc(CSc2nnnn2-c2ccccc2)nc2scc(-c3ccccc3)n12` here?
Answer: Its AC50 is 1.64 µM [falling, partial curve, poor fit].

Question: For `CC1(C)CC(=O)N(CC(=O)O)c2ccccc2S1`, which AC50 [1] is on record?
Answer: The AC50 was 12.6 µM [falling, single point].

Question: Which AC50 [1] does the source give for `COc1ccc(OC)c(CCNC(=O)CSc2ccsc2[N+](=O)[O-])c1` here?
Answer: Its AC50 is 35.5 µM [rising, single point].

Question: Which AC50 [1] does the source give for `O=C(COC(=O)C1CC2CCCC(C1)C2=O)Nc1ccccc1` (stereo not drawn) here?
Answer: Its AC50 is 3.66 µM [falling, partial curve, poor fit].

Question: Which AC50 [1] does the source give for `O=C(CCOc1ccccc1)Nc1ccccc1` here?
Answer: Its AC50 is 11.2 µM [falling, partial curve].

Question: For `COc1cccc(C(=O)NCc2nnc(SCC(=O)Nc3nccs3)n2-c2ccccc2)c1`, which AC50 [1] is on record?
Answer: Its AC50 is 10.3 µM [falling, single point].

Question: With `O=[N+]([O-])c1cc([N+](=O)[O-])c2nonc2c1Nc1ccccc1O` as the molecule, how does the AC50 [1] read?
Answer: Its AC50 is 8.91 µM [falling, partial curve].

Question: Which AC50 [1] does the source give for `Cc1ccccc1-c1nc(CN2CCC(C(=O)NCCCN3CCCC(C)C3)CC2)c(C)o1` (stereo not drawn) here?
Answer: The AC50 was 35.5 µM [falling, single point].

Question: With `c1ccc2[nH]c(CCCCc3nc4ccccc4[nH]3)nc2c1` as the molecule, how does the AC50 [1] read?
Answer: Its AC50 is 10 µM [falling, single point].

Question: With `O=C(CN1C(=O)c2ccccc2S1(=O)=O)c1ccc2c(c1)OCCCO2` as the molecule, how does the AC50 [1] read?
Answer: Its AC50 is 3.55 µM [falling, single point].

Question: Which AC50 [1] does the source give for `O=C1C2ON(c3ccccc3)C(c3cccnc3)C2C(=O)N1c1ccccc1` (stereo not drawn) here?
Answer: The AC50 was 3.66 µM [falling, single point].

Question: For `COc1ccc(C)cc1NC(=O)CCNC(=O)Cn1cnc2ccccc2c1=O`, which AC50 [1] is on record?
Answer: Its AC50 is 3.16 µM [rising, partial curve, poor fit].
